The values below come from the supplement of paper PMC12819154, “High-throughput peptide-centric local stability assay extends protein–ligand identification to membrane proteins, tissues and bacteria” (Nature Structural & Molecular Biology, 2025).

By UniProt entry, the sequences of proteins in these tests, tags left out. Where a name states a change or a piece, a line headed by the entry shows the natural chain unless it says otherwise.
UniProt Q504U0: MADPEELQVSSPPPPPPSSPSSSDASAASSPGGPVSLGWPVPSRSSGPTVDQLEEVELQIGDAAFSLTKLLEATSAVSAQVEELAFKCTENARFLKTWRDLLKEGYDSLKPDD
UniProt Q3MIT2: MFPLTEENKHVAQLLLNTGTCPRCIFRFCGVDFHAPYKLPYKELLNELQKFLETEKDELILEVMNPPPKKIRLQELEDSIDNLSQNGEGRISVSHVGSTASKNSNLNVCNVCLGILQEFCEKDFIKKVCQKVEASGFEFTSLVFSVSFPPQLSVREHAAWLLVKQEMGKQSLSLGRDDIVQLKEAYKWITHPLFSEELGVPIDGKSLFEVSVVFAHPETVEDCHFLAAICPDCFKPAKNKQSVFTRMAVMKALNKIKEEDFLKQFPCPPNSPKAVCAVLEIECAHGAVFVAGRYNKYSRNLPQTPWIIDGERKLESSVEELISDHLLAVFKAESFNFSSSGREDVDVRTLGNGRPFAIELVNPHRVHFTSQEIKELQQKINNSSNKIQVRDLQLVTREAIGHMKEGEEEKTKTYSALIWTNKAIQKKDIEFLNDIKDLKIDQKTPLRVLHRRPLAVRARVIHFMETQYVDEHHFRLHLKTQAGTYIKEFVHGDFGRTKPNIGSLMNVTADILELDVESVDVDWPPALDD
UniProt Q5PSV4: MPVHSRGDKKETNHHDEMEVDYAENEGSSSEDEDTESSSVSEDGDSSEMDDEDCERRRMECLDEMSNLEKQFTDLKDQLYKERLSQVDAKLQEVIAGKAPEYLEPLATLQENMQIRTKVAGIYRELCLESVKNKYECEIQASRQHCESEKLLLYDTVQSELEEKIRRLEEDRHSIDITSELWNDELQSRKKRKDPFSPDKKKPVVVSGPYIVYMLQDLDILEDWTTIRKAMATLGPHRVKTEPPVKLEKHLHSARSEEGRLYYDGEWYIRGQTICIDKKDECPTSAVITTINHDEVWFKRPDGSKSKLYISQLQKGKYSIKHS
UniProt Q5JSJ4, whole entry: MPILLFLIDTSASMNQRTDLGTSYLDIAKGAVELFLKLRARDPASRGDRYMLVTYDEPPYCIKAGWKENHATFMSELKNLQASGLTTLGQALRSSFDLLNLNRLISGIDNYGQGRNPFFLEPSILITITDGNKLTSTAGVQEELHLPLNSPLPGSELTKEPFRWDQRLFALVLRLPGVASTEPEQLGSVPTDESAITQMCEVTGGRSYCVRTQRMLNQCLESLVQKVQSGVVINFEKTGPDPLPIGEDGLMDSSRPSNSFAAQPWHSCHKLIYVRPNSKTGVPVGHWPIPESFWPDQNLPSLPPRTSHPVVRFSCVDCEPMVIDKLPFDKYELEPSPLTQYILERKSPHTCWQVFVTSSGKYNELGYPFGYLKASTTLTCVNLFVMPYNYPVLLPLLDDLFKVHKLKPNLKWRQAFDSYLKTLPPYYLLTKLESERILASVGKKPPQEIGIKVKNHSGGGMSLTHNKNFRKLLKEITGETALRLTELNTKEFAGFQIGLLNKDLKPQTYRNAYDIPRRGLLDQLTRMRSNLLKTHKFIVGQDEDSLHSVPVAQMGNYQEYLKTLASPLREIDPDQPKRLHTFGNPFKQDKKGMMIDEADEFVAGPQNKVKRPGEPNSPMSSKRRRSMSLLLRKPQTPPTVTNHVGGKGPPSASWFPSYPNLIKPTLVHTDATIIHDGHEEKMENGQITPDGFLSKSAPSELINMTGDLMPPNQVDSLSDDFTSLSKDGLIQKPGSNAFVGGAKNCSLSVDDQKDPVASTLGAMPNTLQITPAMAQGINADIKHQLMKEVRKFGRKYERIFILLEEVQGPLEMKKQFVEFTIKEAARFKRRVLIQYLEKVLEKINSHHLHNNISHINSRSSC
UniProt Q569H4: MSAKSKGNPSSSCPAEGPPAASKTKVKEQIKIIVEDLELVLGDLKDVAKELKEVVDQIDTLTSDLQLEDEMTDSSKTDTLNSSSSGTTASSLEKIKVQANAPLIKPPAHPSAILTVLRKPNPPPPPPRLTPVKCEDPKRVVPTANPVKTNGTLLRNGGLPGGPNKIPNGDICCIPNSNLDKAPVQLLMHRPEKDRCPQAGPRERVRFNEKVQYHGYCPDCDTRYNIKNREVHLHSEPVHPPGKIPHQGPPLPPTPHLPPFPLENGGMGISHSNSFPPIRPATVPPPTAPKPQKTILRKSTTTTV
UniProt Q3ZAQ7: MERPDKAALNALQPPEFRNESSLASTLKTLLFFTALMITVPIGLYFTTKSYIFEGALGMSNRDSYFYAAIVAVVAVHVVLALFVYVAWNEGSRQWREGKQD
UniProt Q53G59: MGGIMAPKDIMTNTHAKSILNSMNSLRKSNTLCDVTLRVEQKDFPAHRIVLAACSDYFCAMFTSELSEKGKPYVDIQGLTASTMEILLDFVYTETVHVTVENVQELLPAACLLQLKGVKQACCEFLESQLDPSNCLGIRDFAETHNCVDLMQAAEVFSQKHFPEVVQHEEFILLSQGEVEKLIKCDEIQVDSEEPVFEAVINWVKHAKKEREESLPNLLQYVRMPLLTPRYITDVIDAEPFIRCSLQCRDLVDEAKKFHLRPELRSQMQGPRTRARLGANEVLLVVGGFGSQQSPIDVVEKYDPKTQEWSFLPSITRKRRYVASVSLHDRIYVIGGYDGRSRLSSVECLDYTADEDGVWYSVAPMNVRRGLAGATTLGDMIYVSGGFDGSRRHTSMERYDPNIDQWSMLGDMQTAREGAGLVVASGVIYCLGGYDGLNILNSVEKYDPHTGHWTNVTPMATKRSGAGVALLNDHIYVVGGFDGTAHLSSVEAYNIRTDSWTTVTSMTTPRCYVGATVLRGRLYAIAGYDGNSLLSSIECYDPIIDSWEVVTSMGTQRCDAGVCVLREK
UniProt Q5VIR6: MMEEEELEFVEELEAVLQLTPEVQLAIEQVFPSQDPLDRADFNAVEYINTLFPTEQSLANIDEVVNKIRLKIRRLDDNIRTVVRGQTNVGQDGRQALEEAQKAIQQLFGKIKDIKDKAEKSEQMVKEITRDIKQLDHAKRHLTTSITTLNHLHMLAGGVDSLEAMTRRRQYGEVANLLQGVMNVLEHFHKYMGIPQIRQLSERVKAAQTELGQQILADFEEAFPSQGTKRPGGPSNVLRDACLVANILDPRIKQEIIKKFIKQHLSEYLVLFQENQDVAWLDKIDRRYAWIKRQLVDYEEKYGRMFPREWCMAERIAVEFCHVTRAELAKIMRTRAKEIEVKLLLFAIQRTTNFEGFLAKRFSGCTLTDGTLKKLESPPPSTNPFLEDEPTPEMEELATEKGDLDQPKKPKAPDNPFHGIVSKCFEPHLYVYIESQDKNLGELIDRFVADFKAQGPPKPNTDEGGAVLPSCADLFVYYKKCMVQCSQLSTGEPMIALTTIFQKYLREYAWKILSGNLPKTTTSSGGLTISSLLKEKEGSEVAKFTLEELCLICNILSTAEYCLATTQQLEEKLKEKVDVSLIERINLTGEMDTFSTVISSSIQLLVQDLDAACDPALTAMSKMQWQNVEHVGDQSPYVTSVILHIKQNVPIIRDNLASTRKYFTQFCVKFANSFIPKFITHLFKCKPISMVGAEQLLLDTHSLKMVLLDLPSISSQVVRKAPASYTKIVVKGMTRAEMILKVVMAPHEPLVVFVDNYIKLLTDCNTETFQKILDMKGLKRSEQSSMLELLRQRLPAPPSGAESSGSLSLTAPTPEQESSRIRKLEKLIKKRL
UniProt Q5FWF4: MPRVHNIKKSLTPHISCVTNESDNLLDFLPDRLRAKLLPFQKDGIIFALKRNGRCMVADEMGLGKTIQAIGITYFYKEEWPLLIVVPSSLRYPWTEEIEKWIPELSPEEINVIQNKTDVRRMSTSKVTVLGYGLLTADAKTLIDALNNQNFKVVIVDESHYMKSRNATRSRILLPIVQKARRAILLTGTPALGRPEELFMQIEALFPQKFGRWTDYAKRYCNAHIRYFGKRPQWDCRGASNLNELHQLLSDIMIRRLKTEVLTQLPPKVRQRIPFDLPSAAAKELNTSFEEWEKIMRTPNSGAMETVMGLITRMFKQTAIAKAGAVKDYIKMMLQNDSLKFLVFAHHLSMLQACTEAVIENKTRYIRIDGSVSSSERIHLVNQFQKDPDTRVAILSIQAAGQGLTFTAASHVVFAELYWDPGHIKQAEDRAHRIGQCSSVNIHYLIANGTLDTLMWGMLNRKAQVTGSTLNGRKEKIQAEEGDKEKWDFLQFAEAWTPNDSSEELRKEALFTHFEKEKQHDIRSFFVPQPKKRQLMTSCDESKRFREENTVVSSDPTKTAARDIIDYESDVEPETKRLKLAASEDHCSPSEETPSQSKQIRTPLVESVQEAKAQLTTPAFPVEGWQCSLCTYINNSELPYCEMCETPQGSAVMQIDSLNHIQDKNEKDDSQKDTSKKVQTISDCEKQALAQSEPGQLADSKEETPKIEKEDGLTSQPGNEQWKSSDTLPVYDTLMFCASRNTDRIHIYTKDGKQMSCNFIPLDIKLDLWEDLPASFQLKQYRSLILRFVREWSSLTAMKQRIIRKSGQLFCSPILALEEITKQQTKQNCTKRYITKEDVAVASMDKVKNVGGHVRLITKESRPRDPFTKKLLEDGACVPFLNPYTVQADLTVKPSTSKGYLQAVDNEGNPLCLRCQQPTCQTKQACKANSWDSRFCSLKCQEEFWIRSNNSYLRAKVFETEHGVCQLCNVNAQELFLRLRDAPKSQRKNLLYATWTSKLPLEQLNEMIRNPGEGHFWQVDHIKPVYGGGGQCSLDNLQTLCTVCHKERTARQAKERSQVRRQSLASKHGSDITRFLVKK
UniProt Q53GS9: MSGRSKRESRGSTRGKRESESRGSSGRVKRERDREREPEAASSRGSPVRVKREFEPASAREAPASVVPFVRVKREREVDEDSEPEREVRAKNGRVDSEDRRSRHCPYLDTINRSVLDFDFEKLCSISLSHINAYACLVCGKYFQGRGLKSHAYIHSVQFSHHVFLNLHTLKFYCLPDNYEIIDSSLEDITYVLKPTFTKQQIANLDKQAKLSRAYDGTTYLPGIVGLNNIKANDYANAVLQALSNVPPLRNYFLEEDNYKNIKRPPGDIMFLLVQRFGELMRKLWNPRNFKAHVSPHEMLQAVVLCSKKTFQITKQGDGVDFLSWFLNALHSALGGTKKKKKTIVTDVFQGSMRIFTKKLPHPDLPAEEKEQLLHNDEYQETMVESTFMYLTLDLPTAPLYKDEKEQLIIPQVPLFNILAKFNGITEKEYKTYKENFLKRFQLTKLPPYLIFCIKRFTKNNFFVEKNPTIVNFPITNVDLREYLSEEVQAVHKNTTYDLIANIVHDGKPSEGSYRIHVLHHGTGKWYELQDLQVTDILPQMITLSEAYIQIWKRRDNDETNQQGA

This is one part of the list. Small differences around the control level are noise.

Compound in this test: Cc1nc(Nc2ncc(C(=O)Nc3c(C)cccc3Cl)s2)cc(N2CCN(CCO)CC2)n1 [dasatinib]
Description: log2 fold change of tryptic peptide abundance, ligand vs vehicle (limited proteolysis) (log2 ratio); higher = more trypsin-susceptible (destabilized). To be noted: ligand concentration: 5 uM; sample: K562 cleared lysate.
As for “C4orf46 (peptide sequence: EGYDSLKPDD, peptide start residue: 104) (UniProt Q504U0)”, the log2 fold change is -0.189.
For the target “PUS10 (peptide sequence: DIEFLNDIK, peptide start residue: 428) (UniProt Q3MIT2)”, the log2 fold change came to 0.227.
“BRMS1L (peptide sequence: VKTEPPVKLEK, peptide start residue: 239) (UniProt Q5PSV4)”: the log2 fold change came to 0.0241.
For the target “UniProt Q5JSJ4 (peptide sequence: VKRPGEPNSPMSSK, peptide start residue: 609)”, the log2 fold change came to 0.481.
Consider “PRR16 (peptide sequence: LTPVKCEDPKR, peptide start residue: 129) (UniProt Q569H4)”, for which the log2 fold change was found to be 0.314.
For the target “VMA21 (peptide sequence: AALNALQPPEFR, peptide start residue: 7) (UniProt Q3ZAQ7)”, the log2 fold change turned out to be 0.0619.
For “KLHL12 (peptide sequence: DLVDEAKK, peptide start residue: 250) (UniProt Q53G59)”, the log2 fold change stood at 0.175.
In the case of “VPS53 (peptide sequence: RPGGPSNVLR, peptide start residue: 230) (UniProt Q5VIR6)” it was -0.367; in that of “UniProt Q5FWF4 (peptide sequence: KVQTISDCEK, peptide start residue: 677)”, -0.792; in that of “USP39 (peptide sequence: EREPEAASSR, peptide start residue: 35) (UniProt Q53GS9)”, 0.307.
